Measurements published in US20150368329A1 (ONCOMED PHARMACEUTICALS, published 2015).

Sequences of proteins named here, by UniProt entry; tags and fusion partners are left off. A change or cut given only in a name is not applied to a line headed by its entry.
UniProt Q00731: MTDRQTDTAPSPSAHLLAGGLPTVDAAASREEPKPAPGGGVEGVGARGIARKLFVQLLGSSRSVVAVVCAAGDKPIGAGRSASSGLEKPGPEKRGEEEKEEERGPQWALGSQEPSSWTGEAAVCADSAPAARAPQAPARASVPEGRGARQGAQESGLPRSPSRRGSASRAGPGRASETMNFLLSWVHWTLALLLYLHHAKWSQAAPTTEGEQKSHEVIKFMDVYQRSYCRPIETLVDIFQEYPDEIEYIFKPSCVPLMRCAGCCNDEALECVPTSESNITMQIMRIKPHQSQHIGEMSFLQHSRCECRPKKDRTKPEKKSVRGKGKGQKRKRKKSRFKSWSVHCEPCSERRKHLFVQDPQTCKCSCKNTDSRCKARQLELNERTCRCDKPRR

Key:
[1] = biological target: recombinant mouse VEGF165 (mouse) (UniProt Q00731); experiment: SPR (Biacore 2000), summary of Example 1
[2] = biological target: recombinant mouse VEGF165 (mouse) (UniProt Q00731); experiment: SPR (Biacore 2000)

binding [1] | binding [2] | Binder
binds | binds | anti-VEGF/anti-DLL4 bispecific antibody 219R45-MB-21M18 (bispecific antibody, human IgG2) heavy 1: QVQLVQSGAEVKKPGASVKVSCKASGYTFTNYWMHWVRQAPGQGLEWMGDINPSNGRTSYKEKFKRRVTLSVDKSSSTAYMELSSLRSEDTAVYFCTIHYDDKYYPLMDYWGQGTLVTVSSASTKGPSVFPLAPCSRSTSESTAALGCLVKDYFPEPVTVSWNSGALTSGVHTFPAVLQSSGLYSLSSVVTVPSSNFGTQTYTCNVDHKPSNTKVDKTVERKCCVECPPCPAPPVAGPSVFLFPPKPKDTLMISRTPEVTCVVVDVSHEDPEVQFNWYVDGVEVHNAKTKPREEQFNSTFRVVSVLTVVHQDWLNGKEYKCKVSNKGLPAPIEKTISKTKGQPREPQVYTLPPSREKMTKNQVSLTCLVKGFYPSDIAVEWESNGQPENNYKTTPPMLKSDGSFFLYSKLTVDKSRWQQGNVFSCSVMHEALHNHYTQKSLSLSPGK heavy 2: QVQLVQSGAEVKKPGASVKISCKASGYSFTAYYIHWVKQAPGQGLEWIGYISSYNGATNYNQKFKGRVTFTTDTSTSTAYMELRSLRSDDTAVYYCARDYDYDVGMDYWGQGTLVTVSSASTKGPSVFPLAPCSRSTSESTAALGCLVKDYFPEPVTVSWNSGALTSGVHTFPAVLQSSGLYSLSSVVTVPSSNFGTQTYTCNVDHKPSNTKVDKTVERKCCVECPPCPAPPVAGPSVFLFPPKPKDTLMISRTPEVTCVVVDVSHEDPEVQFNWYVDGVEVHNAKTKPREEQFNSTFRVVSVLTVVHQDWLNGKEYKCKVSNKGLPAPIEKTISKTKGQPREPQVYTLPPSREEMTKNQVSLTCLVEGFYPSDIAVEWESNGQPENNYKTTPPMLDSDGSFFLYSELTVDKSRWQQGNVFSCSVMHEALHNHYTQKSLSLSPGK light: DIVMTQSPDSLAVSLGERATISCRASESVDNYGISFMKWFQQKPGQPPKLLIYAASNQGSGVPDRFSGSGSGTDFTLTISSLQAEDVAVYYCQQSKEVPWTFGGGTKVEIKRTVAAPSVIFPPSDEQLKSGTASVVCLLNNFYPREAKVQWKVDNALQSGNSQESVTEQDSKDSTYSLSSTLTLSKADYEKHKVYACEVTHQGLSSPVTKSFNRGEC
binds | binds | anti-VEGF/anti-DLL4 bispecific antibody 219R45-MB-21R79 (bispecific antibody, human IgG2) heavy 1: QVQLVQSGAEVKKPGASVKVSCKASGYTFTNYWMHWVRQAPGQGLEWMGDINPSNGRTSYKEKFKRRVTLSVDKSSSTAYMELSSLRSEDTAVYFCTIHYDDKYYPLMDYWGQGTLVTVSSASTKGPSVFPLAPCSRSTSESTAALGCLVKDYFPEPVTVSWNSGALTSGVHTFPAVLQSSGLYSLSSVVTVPSSNFGTQTYTCNVDHKPSNTKVDKTVERKCCVECPPCPAPPVAGPSVFLFPPKPKDTLMISRTPEVTCVVVDVSHEDPEVQFNWYVDGVEVHNAKTKPREEQFNSTFRVVSVLTVVHQDWLNGKEYKCKVSNKGLPAPIEKTISKTKGQPREPQVYTLPPSREKMTKNQVSLTCLVKGFYPSDIAVEWESNGQPENNYKTTPPMLKSDGSFFLYSKLTVDKSRWQQGNVFSCSVMHEALHNHYTQKSLSLSPGK heavy 2: QVQLVQSGAEVKKPGASVKISCKASGYSFTAYYIHWVKQAPGQGLEWIGYIANYNRATNYNQKFKGRVTFTTDTSTSTAYMELRSLRSDDTAVYYCARDYDYDVGMDYWGQGTLVTVSSASTKGPSVFPLAPCSRSTSESTAALGCLVKDYFPEPVTVSWNSGALTSGVHTFPAVLQSSGLYSLSSVVTVPSSNFGTQTYTCNVDHKPSNTKVDKTVERKCCVECPPCPAPPVAGPSVFLFPPKPKDTLMISRTPEVTCVVVDVSHEDPEVQFNWYVDGVEVHNAKTKPREEQFNSTFRVVSVLTVVHQDWLNGKEYKCKVSNKGLPAPIEKTISKTKGQPREPQVYTLPPSREEMTKNQVSLTCLVEGFYPSDIAVEWESNGQPENNYKTTPPMLDSDGSFFLYSELTVDKSRWQQGNVFSCSVMHEALHNHYTQKSLSLSPGK light: DIVMTQSPDSLAVSLGERATISCRASESVDNYGISFMKWFQQKPGQPPKLLIYAASNQGSGVPDRFSGSGSGTDFTLTISSLQAEDVAVYYCQQSKEVPWTFGGGTKVEIKRTVAAPSVIFPPSDEQLKSGTASVVCLLNNFYPREAKVQWKVDNALQSGNSQESVTEQDSKDSTYSLSSTLTLSKADYEKHKVYACEVTHQGLSSPVTKSFNRGEC

Results are given in words; binding and its absence hold for the method and conditions named. A result given as binding can be weak or reduced; the word gives no strength.
